Results taken from the supplement of paper PMC10849652.
Some of the results follow. Residues, ends and D or L forms follow the SMILES beside them. *: point of attachment. Cbz = O=C(OCc1ccccc1)*

Amino acid sequences for entries named in this document (tags omitted). A change or cut given only in a name is not applied to a line headed by its entry.
UniProt Q13158: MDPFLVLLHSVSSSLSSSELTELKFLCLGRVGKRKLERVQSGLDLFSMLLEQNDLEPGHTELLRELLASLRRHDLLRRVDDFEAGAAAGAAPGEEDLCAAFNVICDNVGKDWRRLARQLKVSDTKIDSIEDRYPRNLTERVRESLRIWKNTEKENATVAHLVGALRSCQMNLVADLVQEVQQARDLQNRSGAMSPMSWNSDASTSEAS
UniProt Q16134: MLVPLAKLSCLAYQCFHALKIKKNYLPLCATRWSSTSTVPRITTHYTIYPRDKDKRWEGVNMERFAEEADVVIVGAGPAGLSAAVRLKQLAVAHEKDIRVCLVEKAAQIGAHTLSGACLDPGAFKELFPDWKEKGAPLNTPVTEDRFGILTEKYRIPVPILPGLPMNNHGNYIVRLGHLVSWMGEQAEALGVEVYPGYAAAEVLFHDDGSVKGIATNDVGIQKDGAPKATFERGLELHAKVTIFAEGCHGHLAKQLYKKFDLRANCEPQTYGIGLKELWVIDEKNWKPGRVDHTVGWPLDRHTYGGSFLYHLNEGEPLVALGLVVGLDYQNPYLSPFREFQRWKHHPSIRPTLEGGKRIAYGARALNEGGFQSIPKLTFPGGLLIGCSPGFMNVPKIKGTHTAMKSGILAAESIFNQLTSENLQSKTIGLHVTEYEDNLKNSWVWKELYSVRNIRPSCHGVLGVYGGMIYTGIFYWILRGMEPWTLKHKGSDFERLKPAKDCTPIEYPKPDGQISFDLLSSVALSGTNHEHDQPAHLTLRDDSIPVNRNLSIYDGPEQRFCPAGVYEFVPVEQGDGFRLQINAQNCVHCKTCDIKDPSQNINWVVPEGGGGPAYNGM
UniProt Q9UBC2: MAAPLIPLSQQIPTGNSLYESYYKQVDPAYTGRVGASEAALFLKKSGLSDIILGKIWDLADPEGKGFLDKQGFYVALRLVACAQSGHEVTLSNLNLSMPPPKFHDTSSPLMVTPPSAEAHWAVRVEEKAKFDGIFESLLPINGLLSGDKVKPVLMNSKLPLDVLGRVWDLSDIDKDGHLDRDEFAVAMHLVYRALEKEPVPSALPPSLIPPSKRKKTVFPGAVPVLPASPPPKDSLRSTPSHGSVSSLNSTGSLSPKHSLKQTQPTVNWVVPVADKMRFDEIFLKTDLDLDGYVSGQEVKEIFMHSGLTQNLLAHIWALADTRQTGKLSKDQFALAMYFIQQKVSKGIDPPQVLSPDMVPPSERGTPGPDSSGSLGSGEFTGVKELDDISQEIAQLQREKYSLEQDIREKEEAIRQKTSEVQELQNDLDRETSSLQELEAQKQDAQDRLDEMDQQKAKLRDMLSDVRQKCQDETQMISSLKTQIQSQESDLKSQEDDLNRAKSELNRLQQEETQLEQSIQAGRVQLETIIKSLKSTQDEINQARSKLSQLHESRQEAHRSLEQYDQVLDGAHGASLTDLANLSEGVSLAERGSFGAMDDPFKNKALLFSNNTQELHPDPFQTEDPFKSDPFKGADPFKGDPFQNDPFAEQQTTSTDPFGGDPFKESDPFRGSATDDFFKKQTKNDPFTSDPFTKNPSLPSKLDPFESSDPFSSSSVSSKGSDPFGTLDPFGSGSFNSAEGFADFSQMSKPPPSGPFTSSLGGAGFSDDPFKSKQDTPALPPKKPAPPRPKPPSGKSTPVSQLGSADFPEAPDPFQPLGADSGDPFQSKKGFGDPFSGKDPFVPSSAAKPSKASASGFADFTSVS
UniProt Q5BKY9: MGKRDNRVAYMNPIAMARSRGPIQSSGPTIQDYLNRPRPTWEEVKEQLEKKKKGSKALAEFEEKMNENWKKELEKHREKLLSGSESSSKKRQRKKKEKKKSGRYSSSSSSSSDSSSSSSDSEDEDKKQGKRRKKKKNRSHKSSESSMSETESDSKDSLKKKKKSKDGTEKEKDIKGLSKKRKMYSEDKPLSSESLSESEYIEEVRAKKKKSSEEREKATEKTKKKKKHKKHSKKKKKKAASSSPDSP
UniProt Q8IUD2: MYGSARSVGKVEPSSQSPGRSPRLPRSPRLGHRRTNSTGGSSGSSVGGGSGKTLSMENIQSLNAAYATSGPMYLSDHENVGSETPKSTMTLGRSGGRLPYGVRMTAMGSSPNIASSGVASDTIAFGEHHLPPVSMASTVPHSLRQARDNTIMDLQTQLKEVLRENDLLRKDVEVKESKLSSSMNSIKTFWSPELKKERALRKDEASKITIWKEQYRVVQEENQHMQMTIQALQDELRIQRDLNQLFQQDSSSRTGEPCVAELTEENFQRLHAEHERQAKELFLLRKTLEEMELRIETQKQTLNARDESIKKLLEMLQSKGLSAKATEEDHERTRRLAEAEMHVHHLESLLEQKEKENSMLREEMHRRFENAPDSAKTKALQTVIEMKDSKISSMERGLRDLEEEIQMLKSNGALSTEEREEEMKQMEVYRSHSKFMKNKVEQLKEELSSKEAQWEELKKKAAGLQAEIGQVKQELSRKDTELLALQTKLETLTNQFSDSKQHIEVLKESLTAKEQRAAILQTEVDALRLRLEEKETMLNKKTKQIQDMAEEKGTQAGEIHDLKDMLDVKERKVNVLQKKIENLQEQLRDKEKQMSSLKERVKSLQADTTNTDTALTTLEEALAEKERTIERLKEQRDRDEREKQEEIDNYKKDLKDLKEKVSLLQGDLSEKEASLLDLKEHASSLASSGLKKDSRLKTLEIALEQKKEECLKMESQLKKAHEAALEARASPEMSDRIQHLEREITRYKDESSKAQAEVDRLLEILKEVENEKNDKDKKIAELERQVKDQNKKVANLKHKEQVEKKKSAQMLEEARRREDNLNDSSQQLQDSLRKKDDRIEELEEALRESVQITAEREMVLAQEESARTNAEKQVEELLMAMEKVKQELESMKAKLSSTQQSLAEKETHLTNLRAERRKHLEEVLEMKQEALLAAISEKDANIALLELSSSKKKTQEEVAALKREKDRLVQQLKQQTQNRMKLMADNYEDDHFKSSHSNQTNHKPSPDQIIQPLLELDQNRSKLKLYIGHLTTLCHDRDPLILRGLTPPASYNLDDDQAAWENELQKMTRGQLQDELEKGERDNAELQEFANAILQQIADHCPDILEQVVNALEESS
UniProt Q9Y282: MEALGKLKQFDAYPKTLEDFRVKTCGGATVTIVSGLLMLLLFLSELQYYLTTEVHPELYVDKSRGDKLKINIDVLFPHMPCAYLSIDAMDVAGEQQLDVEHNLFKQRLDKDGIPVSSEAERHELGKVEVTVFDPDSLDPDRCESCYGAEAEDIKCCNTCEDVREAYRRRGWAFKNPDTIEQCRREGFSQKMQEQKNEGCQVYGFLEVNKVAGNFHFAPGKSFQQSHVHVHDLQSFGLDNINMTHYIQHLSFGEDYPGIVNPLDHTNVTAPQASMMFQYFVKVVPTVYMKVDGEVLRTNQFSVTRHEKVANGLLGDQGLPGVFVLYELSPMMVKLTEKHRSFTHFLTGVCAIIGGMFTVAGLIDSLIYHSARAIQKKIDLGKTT
UniProt P16930: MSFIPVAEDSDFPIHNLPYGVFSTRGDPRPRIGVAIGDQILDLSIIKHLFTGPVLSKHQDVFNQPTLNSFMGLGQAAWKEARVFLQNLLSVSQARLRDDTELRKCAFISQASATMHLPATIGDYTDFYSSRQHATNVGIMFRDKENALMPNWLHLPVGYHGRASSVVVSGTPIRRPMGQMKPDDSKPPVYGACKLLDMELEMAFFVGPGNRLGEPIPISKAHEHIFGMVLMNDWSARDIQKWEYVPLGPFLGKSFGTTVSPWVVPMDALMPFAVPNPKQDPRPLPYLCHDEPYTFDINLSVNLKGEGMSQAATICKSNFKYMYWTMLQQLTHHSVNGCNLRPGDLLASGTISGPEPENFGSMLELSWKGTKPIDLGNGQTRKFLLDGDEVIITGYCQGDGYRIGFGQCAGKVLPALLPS
UniProt Q9UKR5: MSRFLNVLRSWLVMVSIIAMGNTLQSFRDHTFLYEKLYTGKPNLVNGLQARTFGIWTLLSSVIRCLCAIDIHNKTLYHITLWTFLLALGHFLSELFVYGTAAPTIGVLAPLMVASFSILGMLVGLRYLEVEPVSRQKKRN
UniProt Q96A26: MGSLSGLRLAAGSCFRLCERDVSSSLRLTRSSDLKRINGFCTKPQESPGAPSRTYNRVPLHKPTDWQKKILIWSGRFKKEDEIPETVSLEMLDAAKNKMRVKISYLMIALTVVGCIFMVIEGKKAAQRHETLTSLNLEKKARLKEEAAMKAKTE
UniProt Q96RT1: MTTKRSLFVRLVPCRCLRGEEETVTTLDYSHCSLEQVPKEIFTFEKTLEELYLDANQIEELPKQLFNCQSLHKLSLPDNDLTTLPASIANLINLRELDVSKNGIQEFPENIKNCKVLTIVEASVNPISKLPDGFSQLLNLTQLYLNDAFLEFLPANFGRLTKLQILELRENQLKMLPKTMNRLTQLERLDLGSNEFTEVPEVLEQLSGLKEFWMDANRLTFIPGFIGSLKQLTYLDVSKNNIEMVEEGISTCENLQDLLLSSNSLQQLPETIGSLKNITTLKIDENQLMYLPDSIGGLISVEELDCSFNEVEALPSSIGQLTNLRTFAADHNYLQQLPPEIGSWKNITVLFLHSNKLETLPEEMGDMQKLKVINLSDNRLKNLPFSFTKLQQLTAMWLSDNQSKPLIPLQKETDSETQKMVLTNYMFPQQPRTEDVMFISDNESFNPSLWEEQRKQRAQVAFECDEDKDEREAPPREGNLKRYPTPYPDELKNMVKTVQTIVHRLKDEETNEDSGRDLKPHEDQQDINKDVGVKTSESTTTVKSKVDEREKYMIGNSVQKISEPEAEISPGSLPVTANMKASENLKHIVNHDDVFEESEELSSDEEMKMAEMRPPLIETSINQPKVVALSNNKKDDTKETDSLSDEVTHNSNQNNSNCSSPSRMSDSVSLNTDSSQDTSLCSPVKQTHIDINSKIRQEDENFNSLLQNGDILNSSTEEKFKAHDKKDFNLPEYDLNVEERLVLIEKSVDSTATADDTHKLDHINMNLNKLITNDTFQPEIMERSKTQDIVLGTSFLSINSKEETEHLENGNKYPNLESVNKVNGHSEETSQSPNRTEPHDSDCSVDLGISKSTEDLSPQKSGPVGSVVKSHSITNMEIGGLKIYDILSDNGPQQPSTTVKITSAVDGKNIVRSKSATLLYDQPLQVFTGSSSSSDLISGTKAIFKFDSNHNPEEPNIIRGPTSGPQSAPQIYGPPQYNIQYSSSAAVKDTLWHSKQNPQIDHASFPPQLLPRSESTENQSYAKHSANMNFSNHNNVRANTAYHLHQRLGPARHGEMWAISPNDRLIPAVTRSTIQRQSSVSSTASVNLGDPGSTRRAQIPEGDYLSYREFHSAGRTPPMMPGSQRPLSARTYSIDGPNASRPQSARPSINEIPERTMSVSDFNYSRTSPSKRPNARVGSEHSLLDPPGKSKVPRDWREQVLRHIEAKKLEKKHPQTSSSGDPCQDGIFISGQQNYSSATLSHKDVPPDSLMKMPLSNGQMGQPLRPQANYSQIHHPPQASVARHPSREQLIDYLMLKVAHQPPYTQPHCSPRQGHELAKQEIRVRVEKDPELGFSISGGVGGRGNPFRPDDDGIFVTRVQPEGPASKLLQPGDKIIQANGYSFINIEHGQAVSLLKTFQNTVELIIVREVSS
UniProt O95571: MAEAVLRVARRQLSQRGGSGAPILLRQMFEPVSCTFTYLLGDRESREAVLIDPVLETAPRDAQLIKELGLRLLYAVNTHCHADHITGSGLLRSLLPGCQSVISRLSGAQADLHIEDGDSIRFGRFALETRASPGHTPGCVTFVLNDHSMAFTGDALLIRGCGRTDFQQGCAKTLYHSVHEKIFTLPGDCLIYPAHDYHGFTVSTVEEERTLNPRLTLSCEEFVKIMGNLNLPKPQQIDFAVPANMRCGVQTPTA
UniProt Q93063: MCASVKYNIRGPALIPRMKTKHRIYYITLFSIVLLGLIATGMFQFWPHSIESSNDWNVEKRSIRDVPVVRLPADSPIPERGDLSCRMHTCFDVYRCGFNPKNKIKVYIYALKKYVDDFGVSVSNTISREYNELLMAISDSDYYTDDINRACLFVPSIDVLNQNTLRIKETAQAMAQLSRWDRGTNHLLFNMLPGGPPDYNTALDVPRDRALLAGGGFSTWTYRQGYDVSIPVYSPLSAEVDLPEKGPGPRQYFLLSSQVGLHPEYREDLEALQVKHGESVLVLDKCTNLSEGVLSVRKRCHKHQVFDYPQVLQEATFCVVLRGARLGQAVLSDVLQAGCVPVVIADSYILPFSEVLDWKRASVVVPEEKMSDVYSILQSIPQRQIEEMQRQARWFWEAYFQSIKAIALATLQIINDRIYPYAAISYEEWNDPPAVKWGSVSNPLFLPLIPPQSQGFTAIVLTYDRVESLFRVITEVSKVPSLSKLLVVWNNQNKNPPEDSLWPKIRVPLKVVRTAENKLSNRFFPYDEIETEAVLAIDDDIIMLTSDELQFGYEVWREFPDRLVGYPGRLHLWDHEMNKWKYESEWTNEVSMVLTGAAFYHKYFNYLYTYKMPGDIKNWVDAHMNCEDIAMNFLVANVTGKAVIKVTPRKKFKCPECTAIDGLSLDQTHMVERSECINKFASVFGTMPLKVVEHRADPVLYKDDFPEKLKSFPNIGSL

Experiments:
Assay in all cases: log2 fold change, soluble protein after heating vs DMSO (PISA); higher = thermal stabilisation; K562 cells, 10 uM, 30 min; active = over 0.2 and 3.5 SD of the protein, either way, in both replicates (recomputed)
IRAK-1-4 Inhibitor I = compound: C1COCCN1CCN2C3=CC=CC=C3N=C2NC(=O)C4=CC(=CC=C4)[N+](=O)[O-] [IRAK-1-4 Inhibitor I]
Procedure, shortened: (§1)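 Quantification of soluble protein used TMTpro 16plex LC-MS/MS, with channel sums equalised. Samples were the supernatant after 21,000xg for 90 min of pooled aliquots from K562 cells (2×10^6 cells/mL) treated with 10 μM compound for 30 min, heated for 3 min over 48°C-58°C, and extracted in PBS with 0.5% NP-40 at 4°C. Values, from duplicates, describe thermal stability against control samples on a log2 fold-change scale.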

ibrutinib = compound: C=CC(=O)N1CCC[C@@H](n2nc(-c3ccc(Oc4ccccc4)cc3)c3c(N)ncnc32)C1 [ibrutinib]
Procedure, shortened: as §1

[1] = compound: CC(=O)c1cnc2ccc(-c3cc(Cl)c(O)c(Cl)c3)nc2c1N[C@H]1CC[C@H](CN(C)C)CC1
Procedure, shortened: as §1

ralimetinib = compound: CC(C)(C)Cn1c(N)nc2ccc(-c3[nH]c(C(C)(C)C)nc3-c3ccc(F)cc3)nc21 [ralimetinib]
Procedure, shortened: as §1

[2] = compound: CC(C)(O)CC(=O)NCCn1ccc2ncnc(Nc3ccc(Oc4cccc(C(F)(F)F)c4)c(Cl)c3)c21
Procedure, shortened: as §1

[3] = compound: CC(C)C1=C2N=C(C=C(N2N=C1)NCC3=CC=CC=C3)NCCCCCCN
Procedure, shortened: as §1

[4] = compound: CC(C)C[C@@H](C=O)NC(=O)[C@H](CC(C)C)NC(=O)[C@H](CC(C)C)NC(=O)OCc1ccccc1
Procedure, shortened: as §1

pinometostat = compound: CC(C)N(C[C@H]1O[C@@H](n2cnc3c(N)ncnc32)[C@H](O)[C@@H]1O)[C@H]1C[C@@H](CCc2nc3cc(C(C)(C)C)ccc3[nH]2)C1 [pinometostat]
Procedure, shortened: as §1

[5] = compound: CC1=C(C(CC(=O)N1)C2=CC=C(C=C2)C(F)(F)F)C(=O)NC3=C(C=C4C(=C3)C=NN4)F
Procedure, shortened: as §1

[6] = compound: CC1=C(C2=C(C=C1)C(=O)C3=CC=CC=C3N2CCCN)C
Procedure, shortened: as §1

Measured: log2 fold change

FADD (UniProt Q13158)
inactive: IRAK-1-4 Inhibitor I -0.001 | ibrutinib -0.041 | [1] -0.084 | ralimetinib 0.021 | [2] 0.085 | [3] 0.028 | [4] 0.045 | pinometostat 0.14 | [5] -0.073 | [6] 0.069

FAF1 (UniProt Q9UNN5)
inactive: IRAK-1-4 Inhibitor I 0.014 | ibrutinib -0.017 | [1] 0.019 | ralimetinib -0.027 | [2] -0.021 | [3] 0 | [4] -0.043 | pinometostat -0.036 | [5] 0.001 | [6] -0.049

ETFDH (UniProt Q16134)
inactive: IRAK-1-4 Inhibitor I 0.033 | ibrutinib -0.016 | [1] -0.009 | ralimetinib -0.02 | [2] -0.1 | [3] -0.059 | [4] -0.031 | pinometostat -0.018 | [5] 0.002 | [6] 0.014

ERMAP (UniProt Q96PL5)
inactive: IRAK-1-4 Inhibitor I -0.014 | ibrutinib 0.041 | [1] 0.01 | ralimetinib -0.188 | [2] 0.013 | [3] -0.043 | [4] 0.139 | pinometostat 0.114 | [5] -0.001 | [6] 0.008

EXOSC4 (UniProt Q9NPD3)
inactive: IRAK-1-4 Inhibitor I 0.006 | ibrutinib 0.016 | [1] -0.01 | ralimetinib 0.083 | [2] -0.002 | [3] 0.105 | [4] -0.12 | pinometostat 0.025 | [5] 0.033 | [6] 0.041

EPS15L1 isoform 2 (UniProt Q9UBC2)
inactive: IRAK-1-4 Inhibitor I -0.002 | ibrutinib -0.024 | [1] 0.034 | ralimetinib 0.002 | [2] -0.1 | [3] -0.144 | [4] 0.024 | pinometostat -0.021 | [5] -0.029 | [6] -0.146

ETFA (UniProt P13804)
inactive: IRAK-1-4 Inhibitor I 0.04 | ibrutinib -0.001 | [1] -0.028 | ralimetinib -0.046 | [2] -0.003 | [3] 0.016 | [4] -0.027 | pinometostat -0.027 | [5] -0.024 | [6] 0.002

EXOSC1 (UniProt Q9Y3B2)
inactive: IRAK-1-4 Inhibitor I -0.025 | ibrutinib -0.056 | [1] -0.064 | ralimetinib 0.05 | [2] 0.045 | [3] 0.024 | [4] 0.1 | pinometostat 0.098 | [5] -0.081 | [6] 0.093

EXOSC5 (UniProt Q9NQT4)
inactive: IRAK-1-4 Inhibitor I -0.002 | ibrutinib 0.013 | [1] 0.016 | ralimetinib -0.02 | [2] 0.007 | [3] 0.054 | [4] -0.017 | pinometostat -0.009 | [5] -0.002 | [6] 0.042

FAM136A (UniProt Q96C01)
inactive: IRAK-1-4 Inhibitor I -0.033 | ibrutinib -0.019 | [1] -0.009 | ralimetinib -0.066 | [2] 0.013 | [3] 0.049 | [4] -0.075 | pinometostat -0.115 | [5] 0.057 | [6] 0.122

FAM133B (UniProt Q5BKY9)
inactive: IRAK-1-4 Inhibitor I 0.013 | ibrutinib 0.016 | [1] -0.084 | ralimetinib -0.059 | [2] -0.021 | [3] -0.01 | [4] 0.1 | pinometostat -0.028 | [5] 0.067 | [6] -0.017

ERC1 (UniProt Q8IUD2)
inactive: IRAK-1-4 Inhibitor I 0.032 | ibrutinib 0.117 | [1] -0.361 | ralimetinib 0.193 | [2] -0.116 | [3] -0.272 | [4] 0.03 | pinometostat 0.109 | [5] 0.024 | [6] 0.151

ERGIC3 isoform 3 (UniProt Q9Y282)
inactive: IRAK-1-4 Inhibitor I 0.018 | ibrutinib 0.024 | [1] 0.016 | ralimetinib -0.084 | [2] -0.091 | [3] -0.14 | [4] 0.019 | pinometostat -0.027 | [5] 0.029 | [6] -0.006

EZR (UniProt P15311)
inactive: IRAK-1-4 Inhibitor I 0.023 | ibrutinib -0.021 | [1] 0.056 | ralimetinib -0.014 | [2] 0.044 | [3] 0.055 | [4] -0.011 | pinometostat -0.101 | [5] -0.034 | [6] 0.017

EPN2 (UniProt O95208)
inactive: IRAK-1-4 Inhibitor I 0.066 | ibrutinib 0.063 | [1] -0.05 | ralimetinib 0.097 | [2] 0.003 | [3] -0.042 | [4] -0.022 | pinometostat -0.029 | [5] -0.001 | [6] -0.052

ETNPPL (UniProt Q8TBG4)
inactive: IRAK-1-4 Inhibitor I -0.225 | ibrutinib 0.007 | [1] 0.077 | ralimetinib -0.068 | [2] 0.12 | [3] 0.151 | [4] 0.03 | pinometostat -0.012 | [5] -0.046 | [6] -0.042

EPB41L3 (UniProt Q9Y2J2)
inactive: IRAK-1-4 Inhibitor I 0.032 | ibrutinib 0.008 | [1] -0.151 | ralimetinib -0.047 | [2] -0.039 | [3] 0.02 | [4] -0.004 | pinometostat -0.033 | [5] -0.004 | [6] 0.006

FAH (UniProt P16930)
inactive: IRAK-1-4 Inhibitor I 0.044 | ibrutinib 0.035 | [1] -0.032 | ralimetinib -0.042 | [2] 0.022 | [3] 0.056 | [4] -0.063 | pinometostat -0.032 | [5] 0.045 | [6] 0.002

ERG28 (UniProt Q9UKR5)
inactive: IRAK-1-4 Inhibitor I -0.256 | ibrutinib 0.006 | [1] 0.208 | ralimetinib 0.006 | [2] 0.106 | [3] 0.036 | [4] -0.062 | pinometostat 0.019 | [5] 0.065 | [6] -0.107

ERP44 (UniProt Q9BS26)
inactive: IRAK-1-4 Inhibitor I 0.025 | ibrutinib -0.007 | [1] 0 | ralimetinib 0 | [2] -0.002 | [3] -0.005 | [4] 0.018 | pinometostat -0.01 | [5] -0.009 | [6] -0.023

Reprinted at random: 2 entries already listed
ERP44 (UniProt Q9BS26)
inactive: IRAK-1-4 Inhibitor I 0.025 | ibrutinib -0.007 | [1] 0 | ralimetinib 0 | [2] -0.002 | [3] -0.005 | [4] 0.018 | pinometostat -0.01 | [5] -0.009 | [6] -0.023

FAH (UniProt P16930)
inactive: IRAK-1-4 Inhibitor I 0.044 | ibrutinib 0.035 | [1] -0.032 | ralimetinib -0.042 | [2] 0.022 | [3] 0.056 | [4] -0.063 | pinometostat -0.032 | [5] 0.045 | [6] 0.002

Remaining list, next part

ERMP1 (UniProt Q7Z2K6)
inactive: IRAK-1-4 Inhibitor I 0.009 | ibrutinib 0.027 | [1] 0.009 | ralimetinib -0.056 | [2] 0.004 | [3] -0.009 | [4] -0.03 | pinometostat -0.054 | [5] 0.018 | [6] 0.019

ERO1A (UniProt Q96HE7)
inactive: IRAK-1-4 Inhibitor I -0.021 | ibrutinib -0.004 | [1] -0.002 | ralimetinib 0.001 | [2] 0.015 | [3] -0.004 | [4] -0.017 | pinometostat 0.038 | [5] 0.009 | [6] -0.02

FAM162A (UniProt Q96A26)
inactive: IRAK-1-4 Inhibitor I 0.044 | ibrutinib 0.036 | [1] -0.066 | ralimetinib -0.022 | [2] -0.008 | [3] -0.014 | [4] -0.034 | pinometostat 0.006 | [5] 0.007 | [6] 0.179

ERCC4 (UniProt Q92889)
inactive: IRAK-1-4 Inhibitor I -0.06 | ibrutinib -0.044 | [1] -0.022 | ralimetinib -0.015 | [2] -0.007 | [3] -0.201 | [4] -0.033 | pinometostat -0.01 | [5] -0.039 | [6] -0.144

ERBIN isoform 8 (UniProt Q96RT1)
inactive: IRAK-1-4 Inhibitor I -0.008 | ibrutinib 0.013 | [1] -0.108 | ralimetinib 0.029 | [2] -0.046 | [3] -0.123 | [4] 0.052 | pinometostat -0.003 | [5] -0.014 | [6] 0.007

FAM120A isoform 6 (UniProt Q9NZB2)
inactive: IRAK-1-4 Inhibitor I -0.123 | ibrutinib 0.098 | [1] 0.115 | ralimetinib 0.072 | [2] 0.131 | [3] 0.046 | [4] 0.043 | pinometostat 0.094 | [5] -0.008 | [6] -0.301

ETHE1 (UniProt O95571)
inactive: IRAK-1-4 Inhibitor I 0.029 | ibrutinib 0.062 | [1] -0.009 | ralimetinib -0.006 | [2] -0.008 | [3] -0.003 | [4] -0.035 | pinometostat -0.027 | [5] 0.131 | [6] -0.027

EPB41L2 (UniProt O43491)
inactive: IRAK-1-4 Inhibitor I 0.022 | ibrutinib 0.011 | [1] -0.15 | ralimetinib 0.001 | [2] -0.024 | [3] 0.052 | [4] -0.001 | pinometostat -0.005 | [5] -0.03 | [6] 0.086

EXT2 isoform 3 (UniProt Q93063)
inactive: IRAK-1-4 Inhibitor I -0.044 | ibrutinib -0.028 | [1] -0.008 | ralimetinib 0.009 | [2] 0.026 | [3] -0.088 | [4] 0.085 | pinometostat 0.088 | [5] 0.042 | [6] -0.016

FAH isoform 2 (UniProt P16930)
inactive: IRAK-1-4 Inhibitor I -0.023 | ibrutinib -0.192 | [1] -0.004 | ralimetinib 0.034 | [2] -0.027 | [3] 0.06 | [4] -0.184 | pinometostat -0.026 | [5] 0.108 | [6] 0.003
